Measurements reported in PubChem BioAssay AID1259308 (NCATS, 2017)

Test: 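Genes whose loss raises luciferase production in HEK293 cells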 (primary screen)
Cell system: human HEK293 embryonic kidney cells stably expressing firefly luciferase (HEK-CMV-Luc2-Hygro)
Knock-down reagent: single siRNA against human genes, 0.8 pmol siRNA per well
Time to read-out: 72 h
Read-out: 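Reporter luminescence and viable-cell signal on separate replicate plates, given as percent of non-targeting control and median/MAD z-scores, plus per-cell luciferase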
Reading the numbers: total luciferase, z-score: higher = more reporter protein produced
Call rule: 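An siRNA counts as active if its total luciferase robust z-score exceeds 3; genes with two or more such siRNAs out of three were retested with fresh siRNAs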
Calls: active = raised luciferase; inactive = no rise
This is one part, drawn at random, of about 59,000 deposited reagents. About 1,510 of all reagents (2.6%) count as active. 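Calls use total luciferase alone and ignore viability, so some active siRNAs may act by altering cell number.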 Reagents against one gene are numbered here. Further read-outs or replicates are left out here.

With knock-down of BCL9L (GeneID 283149) #1 the results were total luciferase, z-score -0.036; inactive.
Against BCL9L (GeneID 283149) #2, the entry reads total luciferase, z-score 0.629; inactive.
For BCL9L (GeneID 283149) #3, the values are total luciferase, z-score -2.17; inactive.
Against UPK1A (GeneID 11045) #1, the entry reads total luciferase, z-score 0.837; inactive.
UPK1A (GeneID 11045) #2 scored total luciferase, z-score 2.59; inactive.
For UPK1A (GeneID 11045) #3 the deposit lists total luciferase, z-score -0.094; inactive.
IFT122P3 (GeneID 653712) #1 scored total luciferase, z-score 0.19; inactive.
IFT122P3 (GeneID 653712) #2 showed total luciferase, z-score -0.207; inactive.
Depletion of IFT122P3 (GeneID 653712) #3 came out at: total luciferase, z-score 0.199; inactive.
Against SSBP3 (GeneID 23648) #1 the deposit lists total luciferase, z-score 0.0825; inactive.
SSBP3 (GeneID 23648) #2 showed total luciferase, z-score 0.346; inactive.
After knock-down of SSBP3 (GeneID 23648) #3, the record shows total luciferase, z-score -0.116; inactive.
Knock-down of PEBP1 (GeneID 5037) #1 resulted in: total luciferase, z-score -0.285; inactive.
After knock-down of PEBP1 (GeneID 5037) #2, the record shows total luciferase, z-score 1.54; inactive.
PEBP1 (GeneID 5037) #3 gave total luciferase, z-score 0.133; inactive.
Against ADA2 (GeneID 51816) #1 the deposit lists total luciferase, z-score -0.376; inactive.
Depletion of ADA2 (GeneID 51816) #2 came out at: total luciferase, z-score 1.17; inactive.
With knock-down of ADA2 (GeneID 51816) #3 the results were total luciferase, z-score -0.889; inactive.
For ZNF813 (GeneID 126017) #1, the entry reads total luciferase, z-score 0.396; inactive.
ZNF813 (GeneID 126017) #2 scored total luciferase, z-score 1.3; inactive.
Against ZNF813 (GeneID 126017) #3, the entry reads total luciferase, z-score 0.169; inactive.
Knock-down of MAP4K3 (GeneID 8491) #1 came out at: total luciferase, z-score 0.745; inactive.
Knock-down of MAP4K3 (GeneID 8491) #2 came out at: total luciferase, z-score -1.63; inactive.
After knock-down of MAP4K3 (GeneID 8491) #3, the record shows total luciferase, z-score -0.571; inactive.
Depletion of CITED1 (GeneID 4435) #1 resulted in: total luciferase, z-score 0.141; inactive.
After knock-down of CITED1 (GeneID 4435) #2, the screen gave total luciferase, z-score -0.571; inactive.
Against CITED1 (GeneID 4435) #3, the entry reads total luciferase, z-score 2.16; inactive.
DRC12 (GeneID 283152) #1 showed total luciferase, z-score -0.352; inactive.
Knock-down of DRC12 (GeneID 283152) #2 gave: total luciferase, z-score -0.446; inactive.
Against DRC12 (GeneID 283152) #3, the values are total luciferase, z-score 0.882; inactive.
Knock-down of STYX (GeneID 6815) #1 gave: total luciferase, z-score -0.162; inactive.
Silencing of STYX (GeneID 6815) #2 came out at: total luciferase, z-score -0.414; inactive.
Depletion of STYX (GeneID 6815) #3 gave: total luciferase, z-score -0.218; inactive.

Copied from the list.
STYX (GeneID 6815) #2, activity call → inactive
MAP4K3 (GeneID 8491) #3, total luciferase, z-score = -0.571
For “activity call”, PEBP1 (GeneID 5037) #2 has inactive
